Experimental data taken from paper PMC9242860.
Results are given in words; binding and its absence hold for the method and conditions named. In cells and extracts the contact can be indirect.

The chains behind the UniProt entries cited, without tags or fusion partners. Where a name states a change or a piece, a line headed by the entry shows the natural chain unless it says otherwise.
UniProt Q99814: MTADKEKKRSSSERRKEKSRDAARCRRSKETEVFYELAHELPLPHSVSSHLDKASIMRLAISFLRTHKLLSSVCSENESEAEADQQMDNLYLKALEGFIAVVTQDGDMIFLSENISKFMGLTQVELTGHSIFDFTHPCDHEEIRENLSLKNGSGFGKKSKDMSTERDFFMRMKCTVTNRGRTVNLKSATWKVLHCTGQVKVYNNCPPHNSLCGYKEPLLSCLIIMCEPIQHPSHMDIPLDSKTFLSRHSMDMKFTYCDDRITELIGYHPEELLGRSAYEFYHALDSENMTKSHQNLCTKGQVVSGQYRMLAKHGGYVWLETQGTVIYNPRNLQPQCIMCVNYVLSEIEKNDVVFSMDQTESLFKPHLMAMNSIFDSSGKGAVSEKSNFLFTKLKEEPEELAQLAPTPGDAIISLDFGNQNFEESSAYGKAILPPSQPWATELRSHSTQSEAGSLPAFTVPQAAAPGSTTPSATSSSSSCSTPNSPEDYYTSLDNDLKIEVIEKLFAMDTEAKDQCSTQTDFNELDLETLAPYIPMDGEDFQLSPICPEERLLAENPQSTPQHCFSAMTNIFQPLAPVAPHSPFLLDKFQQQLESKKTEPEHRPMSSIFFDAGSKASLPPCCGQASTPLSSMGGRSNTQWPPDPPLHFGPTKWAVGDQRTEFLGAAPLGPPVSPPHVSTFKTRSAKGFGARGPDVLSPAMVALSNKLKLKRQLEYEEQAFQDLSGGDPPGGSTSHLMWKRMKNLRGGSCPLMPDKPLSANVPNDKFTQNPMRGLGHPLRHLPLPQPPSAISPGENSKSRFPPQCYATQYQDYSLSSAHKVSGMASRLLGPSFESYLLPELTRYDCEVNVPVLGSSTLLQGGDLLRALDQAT
UniProt Q06710: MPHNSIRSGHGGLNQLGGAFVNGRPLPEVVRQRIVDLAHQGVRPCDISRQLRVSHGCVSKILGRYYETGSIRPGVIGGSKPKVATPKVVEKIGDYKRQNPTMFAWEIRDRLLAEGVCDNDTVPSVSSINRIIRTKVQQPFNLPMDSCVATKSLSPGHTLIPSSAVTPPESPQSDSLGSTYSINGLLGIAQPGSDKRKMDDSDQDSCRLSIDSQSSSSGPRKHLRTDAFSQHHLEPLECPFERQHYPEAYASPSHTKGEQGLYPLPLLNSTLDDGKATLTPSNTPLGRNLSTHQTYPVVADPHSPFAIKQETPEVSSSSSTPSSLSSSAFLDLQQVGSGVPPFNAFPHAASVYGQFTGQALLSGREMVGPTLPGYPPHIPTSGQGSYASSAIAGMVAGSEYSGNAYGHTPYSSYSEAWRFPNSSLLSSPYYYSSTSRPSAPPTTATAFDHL

Target: HIF2A reintroduced in C-M1A^HIF2A-/- cells by a doxycycline-dependent transgene (UniProt Q99814)
Test: co-IP; antibodies targeting HIF2A and PAX8; C-M1A^HIF2A-/- cells with HIF2A reintroduction

binding: no binding
Substance: paired box 8 (PAX8) (from UniProt Q06710 1-450)
